Assay results published in publication PMC8213124.
No constants are given. Whether binding was seen depends on the method and setting. Some binding calls cover weakened binding; strength is not graded here. Each block holds one binder with its values, some of them ahead of it.

Key:
CCL3 (human), P10147 = target: T1, CCL3 (human), P10147; experiment: cross-linking; 50 ng chemokine in 20 mM HEPES, 30 min at room temperature without or with phospholipid (brain PE, PC, PS or heart CL; 1:8 chemokine:total lipid molar ratio), then 0.25 mM BS3 for 30 min; SDS-PAGE and immunoblot with anti-chemokine antibodies; both purified; settings: remark: other sources report otherwise
T1 chain: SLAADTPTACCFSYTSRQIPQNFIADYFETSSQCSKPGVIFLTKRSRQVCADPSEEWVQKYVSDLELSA

CCL21 (human), O00585 = target: T2, CCL21 (human), O00585; experiment: as above; settings: remark: other sources report otherwise
T2 chain: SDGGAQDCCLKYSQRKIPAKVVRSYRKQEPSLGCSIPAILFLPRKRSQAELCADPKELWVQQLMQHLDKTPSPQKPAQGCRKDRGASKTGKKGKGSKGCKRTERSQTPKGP

binding (CCL3 (human), P10147): binds
B1: CCL3, P10147 24-92 (protein)
chain: T1 chain

binding (CCL21 (human), O00585): binds
B2: CCL21, O00585 24-134 (protein)
chain: T2 chain
